Measured values published in patent US12551536B2, “Semaglutide in medical therapy” (Novo Nordisk A/S, priority 2017, dated 2026).
At least one structure is not confirmed: it was looked up by name or label, or the drawing left a doubt.

Assay: 52-week clinical trial of once-daily semaglutide in obese subjects without diabetes mellitus: change in body weight
Format: in vivo, human
Details: Lira 3.0 mg once daily s.c., ANCOVA, J2R-MI
Protocol: This trial was designed as a 52-week, randomised, double-blind, placebo-controlled, sixteen-armed, parallel group, multi-centre, multinational trial comparing once-daily subcutaneous administration of semaglutide in five different doses (ranging from 0.05 mg/day to 0.4 mg/day) with placebo in obese subjects without diabetes mellitus. […] The trial was double-blinded between active and placebo treatment. To ensure a sufficiently large sample of men, no more than 70% of the trial population was allowed to be women and the randomisation was stratified according to sex. Subjects were randomised in a balanced manner (6:1 active:placebo).
The primary endpoint was relative change from baseline in body weight (%) at 52 weeks. Key secondary endpoints included proportion of subjects with weight loss of ≥5% or ≥10% of baseline body weight at 52 weeks as well as change in body weight from baseline to 52 weeks. […] All medical problems either observed by the site staff or the subject was reported as an adverse event and evaluated for severity and causality by the investigator. […]
Statistical analyses of effect endpoints: The primary analysis was based on a ‘jump-to-reference’ multiple imputation approach (J2R-MI). […] The primary endpoint was calculated in each complete data set and analysed using an analysis of covariance (ANCOVA) model. […]

CCCCCCCCCCCCCCCC(=O)N[C@@H](CCC(=O)NCCCC[C@H](NC(=O)[C@H](C)NC(=O)[C@H](C)NC(=O)[C@H](CCC(N)=O)NC(=O)CNC(=O)[C@H](CCC(=O)O)NC(=O)[C@H](CC(C)C)NC(=O)[C@H](Cc1ccc(O)cc1)NC(=O)[C@H](CO)NC(=O)[C@H](CO)NC(=O)[C@@H](NC(=O)[C@H](CC(=O)O)NC(=O)[C@H](CO)NC(=O)[C@@H](NC(=O)[C@H](Cc1ccccc1)NC(=O)[C@@H](NC(=O)CNC(=O)[C@H](CCC(=O)O)NC(=O)[C@H](C)NC(=O)[C@@H](N)Cc1cnc[nH]1)[C@@H](C)O)[C@@H](C)O)C(C)C)C(=O)N[C@@H](CCC(=O)O)C(=O)N[C@@H](Cc1ccccc1)C(=O)N[C@H](C(=O)N[C@@H](C)C(=O)N[C@@H](Cc1c[nH]c2ccccc12)C(=O)N[C@@H](CC(C)C)C(=O)N[C@H](C(=O)N[C@@H](CCCNC(=N)N)C(=O)NCC(=O)N[C@@H](CCCNC(=N)N)C(=O)NCC(=O)O)C(C)C)[C@@H](C)CC)C(=O)O [Lira, liraglutide, reference compound]
Change in body weight (%) from baseline to week 52, Change (%) Estimate: −7.76% | Change in body weight, Treatment difference (%-points) vs. Placebo Pool (week 52): −5.47 %-points
